Some results were stated once for a whole list of compounds, not compound by compound.
System: 3T3-L1 adipocytes
Assay: Fatty acid oxidation (O2 consumption response to palmitate) in adipocytes
Format: cell-based
Conditions: FIG. 8, % change from control
Experimental: Cell Culture: C2C12 and 3T3-L1 preadipocytes (American Type Culture Collection) were plated at a density of 8000 cells/cm^2 (10 cm^2 dish) and grown in Dulbecco's modified eagle's medium (DMEM) containing 10% fetal bovine serum (FBS), and antibiotics (growth medium) at 37° C. in 5% CO2. Confluent 3T3-L1 preadipocytes were induced to differentiate with a standard differentiation medium consisting of DMEM medium supplemented with 10% FBS, 250 nM dexamethasone, 0.5 mM 3-Isobutyl-1-methylxanthine (IBMX) and 1% penicillin-streptomycin. Preadipocytes were maintained in this differentiation medium for 3 days and subsequently cultured in growth medium. Cultures were re-fed every 2-3 days to allow >90% cells to reach fully differentiation before conducting chemical treatment. […]
Fatty acid oxidation: Cellular oxygen consumption was measured using a Seahorse Bioscience XF24 analyzer (Seahorse Bioscience, Billerica, Mass.) in 24-well plates at 37° C., as described by Feige et al (1) with slight modifications. […] Data for each sample were normalized to the pre-palmitate injection baseline for that sample and expressed as % change from that baseline. […] The area under of the curve of O2 consumption change from baseline for each sample was then calculated and used for subsequent analysis.

Structure (SMILES)	increase in fatty acid oxidation
Cc1ncc(COP(=O)(O)O)c(C=O)c1O [PLP, pyridoxal phosphate]	80-90%
CC(C)[C@H](N)C(=O)O [valine]	80-90%

— patent US9901573B2, “Compositions, methods, and kits for regulating energy metabolism” (NuSirt Sciences, Inc., priority 2012, dated 2018)
